According to the supplement of paper PMC4371806:
Over roughly 1,600 compounds, “plate-normalized OD600 growth (mean of duplicates)” has its median near 0.31; the lowest 2% begin near 0.23. The list shows a part of the results.

Test system: Escherichia coli BW25113
Assay: plate-normalized OD600 growth (mean of duplicates) (OD600 (normalized)); higher = more growth (less inhibition)
Details: 10 µM
Description: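 E. coli BW25113 in LB (100 µl, 96-well, no shaking) was exposed to 10 µM of each compound (here the ChemBridge subset of a ~30,000-member library) and grown at 37°C for 24 h or 15°C for 48 h, in duplicate. Growth was read as OD600 and the duplicate ODs were normalized across screening plates to correct plate-to-plate variation.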

Row | Structure (SMILES) | plate-normalized OD600 growth (temperature: 15°C, 48 h) | plate-normalized OD600 growth (temperature: 37°C, 24 h)
1 | N[n+]1cnn(CC(=O)c2ccccc2[N+](=O)[O-])c1 | 0.257 | 0.624
2 | CCN(CC)C(=O)C1CCCN(Cc2ccc(Cl)cc2Cl)C1 (stereo not given) | 0.247 | 0.616
3 | CC(C)(C)NCc1ccc([N+](=O)[O-])cc1 | 0.266 | 0.622
4 | CC(=O)c1nc2ccccc2n1Cc1ccccc1 | 0.234 | 0.608
5 | O=C(NCCCNc1ccc([N+](=O)[O-])cc1)c1ccc(F)cc1 | 0.242 | 0.621
6 | O=C(c1ccc(Br)o1)n1cnc2ccccc21 | 0.29 | 0.627
7 | O=[N+]([O-])c1ccc(N2CCN(CCO)CC2)cc1 | 0.238 | 0.603
8 | CCCC(=O)NC(c1ccccc1)c1ccccc1 | 0.265 | 0.637
9 | CCCCOc1ccc(C2(C)CC(=O)NC2=O)cc1 (stereo not given) | 0.258 | 0.634
10 | C=CCSc1nc(O)cc(=O)n1C | 0.24 | 0.611
11 | CCc1nc2ccccc2c(NC(=O)CN2CCCCCC2)c1C | 0.245 | 0.616
12 | N#C/C(=C\c1cccs1)c1nc(-c2cccs2)cs1 | 0.236 | 0.583
13 | COc1ccc(OC)c(NC(=O)c2cccnc2)c1 | 0.262 | 0.624
14 | CCSc1nc(O)c(C(C)CC)c(=O)[nH]1 (stereo not given) | 0.248 | 0.608
15 | O=Cc1ccc(-c2ccc(Cl)c(C(=O)O)c2)o1 | 0.268 | 0.622
16 | CN1CCN(C(=O)c2sc3cc(Cl)ccc3c2Cl)CC1 | 0.256 | 0.615
17 | COc1ccc(-c2cc(C3CC3)nc(SC)c2C#N)cc1 | 0.249 | 0.61
18 | Cn1c(NC(=O)c2ccc(F)cc2)nc2ccccc21 | 0.267 | 0.619
19 | Cc1ccc(C)c(N2CCN(C3Cc4ccccc4C3)CC2)c1 | 0.251 | 0.616
20 | CC(=O)Nc1ccc(NC(=O)CCCC(=O)O)cc1 | 0.253 | 0.618
21 | Cc1cccc(N2C(=O)CC(N3CCN(Cc4ccccc4)CC3)C2=O)c1 (stereo not given) | 0.254 | 0.616
22 | Cc1occc1C(=O)N1CCN(c2ccc([N+](=O)[O-])cc2)CC1 | 0.262 | 0.639
23 | COc1ccc(CN2CCN(c3ccccn3)CC2)cc1C | 0.236 | 0.638
24 | O=C(Nc1nc(/C=C/c2ccccc2)[nH]c(=O)n1)NS(=O)(=O)c1ccccc1Cl | 0.249 | 0.587
25 | NC(=O)CC(NC(=O)c1ccco1)C(=O)O (stereo not given) | 0.232 | 0.613
26 | N#Cc1cccc2c1-c1ccccc1C2=O | 0.237 | 0.623
27 | CCc1cc(CC)c(CO)c(CC)c1CO | 0.265 | 0.622
28 | COc1cccc(N2CCN(CC3CC4C=CC3C4)CC2)c1 (stereo not given) | 0.296 | 0.627

Reprinted: entries 4–20
Row | Structure (SMILES) | plate-normalized OD600 growth (temperature: 15°C, 48 h) | plate-normalized OD600 growth (temperature: 37°C, 24 h)
4 | CC(=O)c1nc2ccccc2n1Cc1ccccc1 | 0.234 | 0.608
5 | O=C(NCCCNc1ccc([N+](=O)[O-])cc1)c1ccc(F)cc1 | 0.242 | 0.621
6 | O=C(c1ccc(Br)o1)n1cnc2ccccc21 | 0.29 | 0.627
7 | O=[N+]([O-])c1ccc(N2CCN(CCO)CC2)cc1 | 0.238 | 0.603
8 | CCCC(=O)NC(c1ccccc1)c1ccccc1 | 0.265 | 0.637
9 | CCCCOc1ccc(C2(C)CC(=O)NC2=O)cc1 (stereo not given) | 0.258 | 0.634
10 | C=CCSc1nc(O)cc(=O)n1C | 0.24 | 0.611
11 | CCc1nc2ccccc2c(NC(=O)CN2CCCCCC2)c1C | 0.245 | 0.616
12 | N#C/C(=C\c1cccs1)c1nc(-c2cccs2)cs1 | 0.236 | 0.583
13 | COc1ccc(OC)c(NC(=O)c2cccnc2)c1 | 0.262 | 0.624
14 | CCSc1nc(O)c(C(C)CC)c(=O)[nH]1 (stereo not given) | 0.248 | 0.608
15 | O=Cc1ccc(-c2ccc(Cl)c(C(=O)O)c2)o1 | 0.268 | 0.622
16 | CN1CCN(C(=O)c2sc3cc(Cl)ccc3c2Cl)CC1 | 0.256 | 0.615
17 | COc1ccc(-c2cc(C3CC3)nc(SC)c2C#N)cc1 | 0.249 | 0.61
18 | Cn1c(NC(=O)c2ccc(F)cc2)nc2ccccc21 | 0.267 | 0.619
19 | Cc1ccc(C)c(N2CCN(C3Cc4ccccc4C3)CC2)c1 | 0.251 | 0.616
20 | CC(=O)Nc1ccc(NC(=O)CCCC(=O)O)cc1 | 0.253 | 0.618

Next part.

Row | Structure (SMILES) | plate-normalized OD600 growth (temperature: 15°C, 48 h) | plate-normalized OD600 growth (temperature: 37°C, 24 h)
29 | CCN1CCC(N2CCN(c3ccc(Cl)cc3)CC2)CC1 | 0.26 | 0.628
30 | O=C1CC(N2CCOCC2)C(=O)N1c1cccc(Cl)c1 (stereo not given) | 0.247 | 0.609
31 | O=C(Cn1c(NCCCO)nc2ccccc21)c1ccccc1 | 0.229 | 0.622
32 | O=C(CSc1nc2ccccc2[nH]1)c1ccc(Cl)c(Cl)c1 | 0.256 | 0.601
33 | Cc1[nH]nc2c1C(c1ccccc1I)C(C#N)=C(N)O2 (stereo not given) | 0.233 | 0.613
34 | O=C(NCC1CCCO1)c1sc2ccccc2c1Cl (stereo not given) | 0.27 | 0.633
35 | CCN(Cc1ccccc1)C(=O)Cc1ccccc1 | 0.262 | 0.642
36 | CCCn1[nH]cc(SC)c(=O)c1=O | 0.238 | 0.633
37 | O=c1[nH]c(/C=C/c2cccc(Br)c2)c([N+](=O)[O-])c(=O)[nH]1 | 0.247 | 0.617
38 | O=C(CSc1nc2ccccc2s1)Nc1ccccc1Br | 0.239 | 0.609
39 | O=C([C@@H]1C[C@@H]1c1ccccc1)N1CCOCC1 | 0.26 | 0.641
40 | CCN(CCN(C)C)Cc1cccc(Cl)c1 | 0.251 | 0.633
41 | OCCN1CCN(Cc2cc(Br)cs2)CC1 | 0.242 | 0.6
42 | OCCN1CCN(CC2CC=CCC2)CC1 (stereo not given) | 0.228 | 0.604
43 | CN(CC(=O)N1CCCC1=O)Cc1ccccc1 | 0.247 | 0.617
44 | C=CCNc1nc(NCC=C)nc(OC)n1 | 0.25 | 0.627
45 | Nc1nc(-c2ccco2)nc(-c2ccco2)n1 | 0.272 | 0.646
46 | c1ccc(-c2nonc2-c2ccccc2)cc1 | 0.255 | 0.627
47 | N#CC1=C(N)Oc2c([nH]c(=O)[nH]c2=O)C1c1cccc([N+](=O)[O-])c1 (stereo not given) | 0.258 | 0.633
48 | NS(=O)(=O)c1ccc(NC(=O)CCc2ccccc2)cc1 | 0.239 | 0.624
49 | CCCn1c(SCCC(=O)O)nc2ccccc21 | 0.257 | 0.621
50 | COc1ccc(N2C(=O)CC(N(C)Cc3ccccc3)C2=O)cc1 (stereo not given) | 0.237 | 0.616
51 | Cc1cccc2c1[nH]c1nc(NN)nnc12 | 0.277 | 0.611
52 | Cc1c(C=O)c2ccccc2n1CC(N)=O | 0.258 | 0.64
53 | O=c1[nH]c2nonc2nc1Nc1ccccc1 | 0.245 | 0.603
54 | Cc1nc(-c2cccc(NC(=O)c3ccccc3)c2)cs1 | 0.24 | 0.606
55 | CCN(CC)C(=O)C1CCCN(Cc2ccc(F)c(F)c2)C1 (stereo not given) | 0.263 | 0.641
